Measurements from US20150110745A1.
These are yes or no findings as the source states them, for the method shown. A result given as binding can be weak or reduced; the word gives no strength.

Columns and labels:
[1] = molecular target: T1, Recombinant Human LPS Binding Protein (rhLBP) (human) (UniProt P18428); assay: direct ELISA
T1 sequence (looked up): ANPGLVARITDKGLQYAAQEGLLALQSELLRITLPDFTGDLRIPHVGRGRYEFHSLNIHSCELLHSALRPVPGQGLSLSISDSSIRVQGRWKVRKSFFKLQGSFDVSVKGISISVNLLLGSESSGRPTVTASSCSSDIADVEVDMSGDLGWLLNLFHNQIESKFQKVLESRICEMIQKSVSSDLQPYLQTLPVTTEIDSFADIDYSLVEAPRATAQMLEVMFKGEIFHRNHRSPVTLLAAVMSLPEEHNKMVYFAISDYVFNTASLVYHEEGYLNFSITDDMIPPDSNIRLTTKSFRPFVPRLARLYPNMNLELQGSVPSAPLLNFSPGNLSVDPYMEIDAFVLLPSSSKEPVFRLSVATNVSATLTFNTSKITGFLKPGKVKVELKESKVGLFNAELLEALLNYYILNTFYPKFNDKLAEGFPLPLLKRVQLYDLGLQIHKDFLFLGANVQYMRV

[2] = molecular target: T1, Recombinant Human LPS Binding Protein (rhLBP) (human); assay: direct ELISA, rhLBP coated at 4 ug/ml, E+13 phages, detection with HRP-conjugated anti-p8 antibody

With “M13KO7 Helper Phage (New England Biolabs) (bacteriophage M13 (M13KO7))” the binding [1] was “binds” and the binding [2] was “binds”.
